Measured values from patent US11229664B2, “Treatment of myelosuppression” (priority 2012, dated 2022).
Several values for one entry are separate records, joined by “and”; a condition that tells them apart may be missing. Equal entries are not always repeated. This continues a long series; more values of the same kind are listed elsewhere.

What was measured:
[1] = test system: BxPC-3 pancreas tumor cell line; assay: BxPC-3 human pancreas tumor xenograft model: tumor weight, tumor growth inhibition (TGI); format: in vivo, female athymic nude mice; details: Group 2: ODSH 24 mg/kg BID, IV Days 1-11, SC Days 12-end
Method: Compounds tested in the experiment were as follows. ODSH was made by Pyramid Laboratories, Inc. (Costa Mesa, Calif.). ODSH was provided at a stock concentration of 50 mg/ml and stored at room temperature until use. ODSH was diluted in a 0.9% NaCl solution (B. Braun Medical Inc., Irvine, Calif.) to a concentration of 2.4 mg/ml to deliver 24 mg/kg, in a 10 ml/kg dose volume when administered intravenously. A concentration of 4.8 mg/ml was formulated to deliver a 24 mg/kg dose at a 5 ml/kg dose volume when administered subcutaneously. ODSH was formulated fresh prior to each dose.
Nab-paclitaxel was manufactured by Abraxis BioScience LLC (Bridgewater, N.J.) and diluted in a 0.9% NaCl solution to a concentration of 1.5 mg/ml to deliver 15 mg/kg, in a 10 ml/kg dose volume. All standard agent preparations were made fresh prior to their administration.
BxPC-3 cells were obtained and prepared as follows. The BxPC-3 pancreas tumor cell line was received from American Type Culture Collection (ATCC, Manassas, Va.). Cultures were maintained in RPMI 1640 medium (Hyclone, Logan, Utah) supplemented with 5% fetal bovine serum. The cells were housed in a 5% CO2 atmosphere. The cultures were expanded in tissue culture flasks at a 1:3 split ratio until a sufficient amount of cells were harvested.
BxPC-3 Human Pancreas Tumor Xenograft Model: Female athymic nude mice per treatment condition were inoculated subcutaneously in the right flank with 0.1 ml of a 50% RPMI 1640/50% Matrigel™ (BD Biosciences, Bedford, Mass.) mixture containing a suspension of BxPC-3 tumor cells (approximately 5×10^6 cells/mouse).
Study Director V.1.7.54k (Study Log).
Mean tumor growth inhibition (TGI) was calculated utilizing Formula A below (deaths were not included in the TGI calculations).
All statistical analyses in the xenograft study were performed with GraphPad Prism® v4 software.

neutrophils = assay: Clinical trial, metastatic pancreatic cancer: absolute neutrophil count / neutropenia grade; format: in vivo, human; details: individual patients, ODSH adjunctive to gemcitabine and nab-paclitaxel
Text: Male and non-pregnant, non-lactating, female patients, aged 18 to 75, with histologically confirmed metastatic adenocarcinoma of the pancreas were enrolled in the trial. […] Treatment consisted of a series of 28-day cycles, wherein the last day of one cycle (e.g., day 28, cycle 1) was immediately followed by the first day of the next cycle (e.g., day 1, cycle 2). […] Nab-paclitaxel and gemcitabine therapy was given as described in the prescribing information for Abraxane® and Gemzar®. See also, Von Hoff et al., 2011, J. […] As a substantially non-anticoagulant heparinoid, ODSH can be administered at a dose that is greater than the fully anticoagulant dose of unfractionated heparin, without concern for anticoagulant effect, as shown in the Results below. An initial run-in period was conducted in which ten patients were treated with the gemcitabine, nab-paclitaxel, and ODSH regimen described above. After all ten patients had completed at least one 28-day cycle, the data were reviewed and an open-label randomized study initiated, with two arms (ODSH arm and Control arm). In the ODSH arm, the dosing regimen was the same as in the run-in period (gemcitabine, nab-paclitaxel, and ODSH). In the Control arm, patients were given the same gemcitabine and nab-paclitaxel regimen as in the run-in period, but without ODSH. […] Platelet counts, total white blood cell counts, and absolute neutrophil counts were performed. Grading of thrombocytopenia and/or neutropenia was performed according to the following standards: [table]

substantially 2-O, 3-O desulfated heparin [ODSH]
Tumor weight (individual mice) ([1]; Day 4): 162 mg
Tumor weight (individual mice) ([1]; Day 8): 218 mg
Tumor weight (individual mice) ([1]; Day 11): 149 mg
Tumor weight (individual mice) ([1]; Day 15): 206 mg
Tumor weight (individual mice) ([1]; Day 18): 778 mg
Tumor weight (individual mice) ([1]; Day 22): 358 mg
Tumor weight (individual mice) ([1]; Day 26): 509 mg
Tumor weight (individual mice) ([1]; Day 30): 697 mg
Tumor weight (individual mice) ([1]; Day 33): 908 mg
Tumor weight (individual mice) ([1]; Day 36): 1,072 mg
Neutrophil Values (neutrophils; Cycle 1 Day 1 (before treatment)): 4.0 ×10^3/μl blood and 6.2 ×10^3/μl blood and 4.5 ×10^3/μl blood
Neutrophil Values (neutrophils; Cycle 1 Day 8): 1.0 ×10^3/μl blood and 4.0 ×10^3/μl blood and 2.2 ×10^3/μl blood
Neutrophil Values (neutrophils; Cycle 1 Day 15): 1.3 ×10^3/μl blood and 3.9 ×10^3/μl blood and 0.9 ×10^3/μl blood
Neutrophil Values (neutrophils; Cycle 2 Day 1): 3.4 ×10^3/μl blood and 8.3 ×10^3/μl blood and 1.9 ×10^3/μl blood
Neutrophil Values (neutrophils; Cycle 2 Day 8): 2.3 ×10^3/μl blood and 1.7 ×10^3/μl blood and 1.8 ×10^3/μl blood
Neutrophil Values (neutrophils; Cycle 2 Day 15): 2.7 ×10^3/μl blood and 2.4 ×10^3/μl blood
Neutrophil Values (neutrophils; Cycle 3 Day 1): 3.1 ×10^3/μl blood and 3.4 ×10^3/μl blood
Neutrophil Values (neutrophils; Cycle 3 Day 8): 1.8 ×10^3/μl blood and 1.5 ×10^3/μl blood (2×)
Neutrophil Values (neutrophils; Cycle 4 Day 1): 3.8 ×10^3/μl blood and 4.4 ×10^3/μl blood
Neutrophil Values (neutrophils; Cycle 4 Day 8): 2.6 ×10^3/μl blood and 1.5 ×10^3/μl blood
Neutrophil Values (neutrophils; Cycle 4 Day 15): 2.9 ×10^3/μl blood and 1.1 ×10^3/μl blood
Neutrophil Values (neutrophils; Cycle 5 Day 1): 5.0 ×10^3/μl blood and 2.0 ×10^3/μl blood
Neutrophil Values (neutrophils; Cycle 5 Day 8): 0.9 ×10^3/μl blood
Neutrophil Values (neutrophils; Cycle 5 Day 15): 2.3 ×10^3/μl blood and 1.0 ×10^3/μl blood
Neutrophil Values (neutrophils; Cycle 6 Day 1): 5.2 ×10^3/μl blood and 2.2 ×10^3/μl blood
Neutrophil Values (neutrophils; Cycle 6 Day 8): 3.7 ×10^3/μl blood and 0.9 ×10^3/μl blood
Neutrophil Values (neutrophils; Cycle 6 Day 15): 1.2 ×10^3/μl blood and 1.1 ×10^3/μl blood
Neutrophil Values (neutrophils; Screen): 7.6 ×10^3/μl blood
